Data taken from US20120129757A1, “COMPOSITIONS AND METHODS FOR PROMOTING VASCULAR BARRIER FUNCTION AND TREATING PULONARY FIBROSIS” (priority 2008, published 2012).
No constants are given. Whether binding was seen depends on the method and setting. Binding seen in cells or lysates may run through a third protein. Some binding calls cover weakened binding; strength is not graded here.

Assays:
[1] = biological target: T1, vascular endothelial cadherin (VE-cadherin) (human) (UniProt P33151); experiment: co-immunoprecipitation from HMVEC-lung lysates: IP for VE-cadherin, immunoblot for p120-catenin; IL-1β stimulation with Mock or Slit2N
T1 sequence (looked up): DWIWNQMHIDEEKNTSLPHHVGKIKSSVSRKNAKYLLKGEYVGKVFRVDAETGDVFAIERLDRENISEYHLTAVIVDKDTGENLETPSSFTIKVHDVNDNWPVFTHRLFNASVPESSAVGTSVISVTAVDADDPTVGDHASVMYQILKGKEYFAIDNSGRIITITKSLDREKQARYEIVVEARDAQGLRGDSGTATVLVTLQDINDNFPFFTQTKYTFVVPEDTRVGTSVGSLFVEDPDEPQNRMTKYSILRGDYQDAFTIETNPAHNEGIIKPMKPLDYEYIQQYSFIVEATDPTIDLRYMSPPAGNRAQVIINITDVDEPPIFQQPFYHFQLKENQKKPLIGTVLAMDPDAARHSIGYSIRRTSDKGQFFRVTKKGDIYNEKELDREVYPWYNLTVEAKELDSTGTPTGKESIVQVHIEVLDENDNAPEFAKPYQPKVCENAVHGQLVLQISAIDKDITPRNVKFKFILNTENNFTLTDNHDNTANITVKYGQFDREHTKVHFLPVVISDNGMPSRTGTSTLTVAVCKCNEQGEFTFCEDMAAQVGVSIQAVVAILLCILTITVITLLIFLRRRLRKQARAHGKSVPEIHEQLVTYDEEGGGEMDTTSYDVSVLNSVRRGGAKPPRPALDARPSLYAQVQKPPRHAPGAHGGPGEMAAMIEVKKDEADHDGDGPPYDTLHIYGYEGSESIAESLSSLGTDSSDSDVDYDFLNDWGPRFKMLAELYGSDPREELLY

[2] = biological target: T1, vascular endothelial cadherin (VE-cadherin) (human); experiment: co-immunoprecipitation from HMVEC-lung lysates: IP for VE-cadherin, immunoblot for p120-catenin and VE-cadherin

binding [1]: binds
binding [2]: binds
B1: p120-catenin (protein, human, UniProt O60716 1-968, looked up)
chain: MDDSEVESTASILASVKEQEAQFEKLTRALEEERRHVSAQLERVRVSPQDANPLMANGTLTRRHQNGRFVGDADLERQKFSDLKLNGPQDHSHLLYSTIPRMQEPGQIVETYTEEDPEGAMSVVSVETSDDGTTRRTETTVKKVVKTVTTRTVQPVAMGPDGLPVDASSVSNNYIQTLGRDFRKNGNGGPGPYVGQAGTATLPRNFHYPPDGYSRHYEDGYPGGSDNYGSLSRVTRIEERYRPSMEGYRAPSRQDVYGPQPQVRVGGSSVDLHRFHPEPYGLEDDQRSMGYDDLDYGMMSDYGTARRTGTPSDPRRRLRSYEDMIGEEVPSDQYYWAPLAQHERGSLASLDSLRKGGPPPPNWRQPELPEVIAMLGFRLDAVKSNAAAYLQHLCYRNDKVKTDVRKLKGIPVLVGLLDHPKKEVHLGACGALKNISFGRDQDNKIAIKNCDGVPALVRLLRKARDMDLTEVITGTLWNLSSHDSIKMEIVDHALHALTDEVIIPHSGWEREPNEDCKPRHIEWESVLTNTAGCLRNVSSERSEARRKLRECDGLVDALIFIVQAEIGQKDSDSKLVENCVCLLRNLSYQVHREIPQAERYQEAAPNVANNTGPHAASCFGAKKGKDEWFSRGKKPIEDPANDTVDFPKRTSPARGYELLFQPEVVRIYISLLKESKTPAILEASAGAIQNLCAGRWTYGRYIRSALRQEKALSAIADLLTNEHERVVKAASGALRNLAVDARNKELIGKHAIPNLVKNLPGGQQNSSWNFSEDTVISILNTINEVIAENLEAAKKLRETQGIEKLVLINKSGNRSEKEVRAAALVLQTIWGYKELRKPLEKEGWKKSDFQVNLNNASRSQSSHSYDDSTLPLIDRNQKSDKKPDREEIQMSNMGSNTKSLDNNYSTPNERGDHNRTLDRSGDLGDMEPLKGTTPLMQDEGQESLEEELDVLVLDDEGGQVSYPSMQKI
